# From PMC8042234
# Protein sequences, listed by entry. Tags and fused reporters are not part of them.
# UniProt Q86TM6: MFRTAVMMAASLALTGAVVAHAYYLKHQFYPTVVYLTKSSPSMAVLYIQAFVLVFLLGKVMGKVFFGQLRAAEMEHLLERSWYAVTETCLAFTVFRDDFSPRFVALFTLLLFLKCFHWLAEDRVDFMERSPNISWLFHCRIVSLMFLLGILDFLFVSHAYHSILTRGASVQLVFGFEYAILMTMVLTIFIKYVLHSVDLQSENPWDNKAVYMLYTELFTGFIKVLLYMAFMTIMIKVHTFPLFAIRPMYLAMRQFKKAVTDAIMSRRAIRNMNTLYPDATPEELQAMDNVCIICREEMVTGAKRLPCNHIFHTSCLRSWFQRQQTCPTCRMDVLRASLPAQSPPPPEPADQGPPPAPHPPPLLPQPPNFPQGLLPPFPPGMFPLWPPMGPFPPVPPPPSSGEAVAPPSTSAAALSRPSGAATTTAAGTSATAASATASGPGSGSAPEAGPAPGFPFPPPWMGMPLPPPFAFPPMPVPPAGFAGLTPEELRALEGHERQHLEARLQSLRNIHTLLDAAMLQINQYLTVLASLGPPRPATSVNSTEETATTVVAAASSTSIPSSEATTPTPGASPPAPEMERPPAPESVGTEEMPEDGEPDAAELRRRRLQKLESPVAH
# These are yes or no findings as the source states them, for the method shown. In cells and extracts the contact can be indirect. Some results given as binding are weak or reduced against the parent protein; the word gives no strength. Tags and fused reporters may be left off the sequences shown.
# Molecular target: T1, Flag-MTR4 (Mtr4 exosome RNA helicase) (UniProt P42285)
# T1 sequence: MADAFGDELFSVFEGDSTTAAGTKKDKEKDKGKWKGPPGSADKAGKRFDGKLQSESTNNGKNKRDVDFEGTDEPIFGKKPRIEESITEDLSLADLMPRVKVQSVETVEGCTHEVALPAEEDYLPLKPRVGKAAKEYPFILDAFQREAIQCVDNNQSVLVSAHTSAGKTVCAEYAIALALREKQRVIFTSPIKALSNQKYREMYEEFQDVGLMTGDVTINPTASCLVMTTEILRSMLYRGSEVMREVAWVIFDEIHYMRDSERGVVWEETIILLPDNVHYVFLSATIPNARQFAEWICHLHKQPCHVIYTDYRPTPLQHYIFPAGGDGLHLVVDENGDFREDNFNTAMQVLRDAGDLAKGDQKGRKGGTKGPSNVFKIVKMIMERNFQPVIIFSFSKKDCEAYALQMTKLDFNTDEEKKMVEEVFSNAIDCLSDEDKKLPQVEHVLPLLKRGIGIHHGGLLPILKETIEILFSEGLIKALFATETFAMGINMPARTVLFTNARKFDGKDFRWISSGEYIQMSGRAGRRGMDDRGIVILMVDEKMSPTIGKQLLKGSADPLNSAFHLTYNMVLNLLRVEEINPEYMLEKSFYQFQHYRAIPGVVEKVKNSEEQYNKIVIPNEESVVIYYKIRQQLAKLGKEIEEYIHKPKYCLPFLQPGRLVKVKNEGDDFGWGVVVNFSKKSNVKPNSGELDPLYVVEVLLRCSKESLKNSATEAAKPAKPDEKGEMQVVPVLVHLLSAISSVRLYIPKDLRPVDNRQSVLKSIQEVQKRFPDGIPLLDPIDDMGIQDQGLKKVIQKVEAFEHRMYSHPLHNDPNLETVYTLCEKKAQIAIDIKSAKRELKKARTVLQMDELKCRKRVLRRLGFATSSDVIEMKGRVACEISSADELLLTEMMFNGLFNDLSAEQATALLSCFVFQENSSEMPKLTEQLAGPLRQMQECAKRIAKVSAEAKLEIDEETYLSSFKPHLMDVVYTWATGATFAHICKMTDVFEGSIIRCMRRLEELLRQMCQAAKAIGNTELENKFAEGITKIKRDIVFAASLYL
# Assay: co-IP; HEK293T cells co-transfected with Flag-MTR4 and SYVN1; extracts immunoprecipitated with anti-Flag treated protein A/G beads, immunoblotting; also after cultivation in methionine-restricted medium (MRM) for 24 h
substance,measurement,value
SYVN1 (E3 ubiquitin ligase) (from UniProt Q86TM6 1-617),binding,binds
